# Primary screen of a compound library

The chains behind the UniProt entries cited, without tags or fusion partners. Residues count along the entry.
UniProt A4I591, 1-473: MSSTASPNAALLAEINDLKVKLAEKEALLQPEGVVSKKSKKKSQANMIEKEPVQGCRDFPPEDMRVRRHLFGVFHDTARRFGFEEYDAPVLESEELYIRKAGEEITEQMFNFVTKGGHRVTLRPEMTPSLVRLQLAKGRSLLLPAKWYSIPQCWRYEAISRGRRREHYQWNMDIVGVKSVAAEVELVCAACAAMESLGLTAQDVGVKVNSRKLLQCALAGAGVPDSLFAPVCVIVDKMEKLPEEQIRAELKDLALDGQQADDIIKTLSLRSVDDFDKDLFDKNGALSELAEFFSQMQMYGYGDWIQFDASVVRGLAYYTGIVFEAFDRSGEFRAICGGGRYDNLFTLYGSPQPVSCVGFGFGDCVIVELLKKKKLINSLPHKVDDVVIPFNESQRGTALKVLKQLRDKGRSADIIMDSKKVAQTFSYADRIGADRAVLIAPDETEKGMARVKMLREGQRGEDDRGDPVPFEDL
UniProt P9WPC5, whole entry: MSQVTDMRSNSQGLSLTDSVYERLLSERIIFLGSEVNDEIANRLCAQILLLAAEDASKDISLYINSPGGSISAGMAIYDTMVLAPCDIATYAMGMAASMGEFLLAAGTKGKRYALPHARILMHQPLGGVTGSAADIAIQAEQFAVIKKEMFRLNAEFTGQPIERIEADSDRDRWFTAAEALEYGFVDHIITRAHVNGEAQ
UniProt P9WPC3, whole entry partner: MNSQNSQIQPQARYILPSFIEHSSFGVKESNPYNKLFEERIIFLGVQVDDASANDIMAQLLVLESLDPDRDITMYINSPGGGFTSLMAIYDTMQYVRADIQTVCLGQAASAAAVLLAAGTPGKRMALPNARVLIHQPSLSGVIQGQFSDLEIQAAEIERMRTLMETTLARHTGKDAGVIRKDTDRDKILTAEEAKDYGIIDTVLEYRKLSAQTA

The values are deposited in ChEMBL (CHEMBL3988442, “University of Dundee, Small-Polar-MMV Screening Library” (2021)).

A: 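Histidine-tRNA ligase, Leishmania infantum (UniProt A4I591). Enzyme assay of histidyl-tRNA synthetase; the read-out is not stated. Concentration: 30 µM. Direction is inferred from retests: higher values go with stronger inhibition. The assay is labelled LdHisRS but filed under L. infantum. Of about 69,000 compounds tested this way, about 410 (0.6%) reached 50% or more in at least one test.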
B: 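Assay of Toxoplasma gondii numbers, read through their beta-galactosidase reporter with a colour substrate. Compounds at 10 µM. The record gives no direction; the compounds picked for IC50 retests had high values, so higher reads as fewer parasites. About 67,000 compounds were tested under these conditions; 0.38% (about 260) showed 50% or more at least once.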
C: 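ClpP1P2, Mycobacterium tuberculosis (UniProt P9WPC5 and UniProt P9WPC3). Protease assay of ClpP1P2, read by the AMC dye that it sets free. Compounds at 50 µM. Direction is inferred from only a few compounds that gave an IC50; most scored high, so higher reads as stronger inhibition. Most other retested compounds had strongly negative values. Size under these conditions: about 69,000 compounds, about 10 of them at 50% or above in at least one test.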
D: 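Whole-parasite assay of Trypanosoma brucei over 72 hours; the read-out is not stated. Concentration: 30 µM. Higher reads as stronger inhibition (inferred: compounds with an IC50 in retests scored well above the rest). Values scatter widely below zero; nearly all retest evidence comes from the higher of the two concentrations used. About 64,000 compounds were tested under these conditions; 1.5% (about 940) showed 50% or more at least once.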
E: 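Cell assay of Leishmania donovani living inside macrophages; the read-out is not stated. Tested at 30 µM. Direction is inferred from retests: higher values go with stronger inhibition. Of about 69,000 compounds tested this way, about 1,000 (1.5%) reached 50% or more in at least one test.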

Each number is a percent effect as filed. The controls that fix the scale are not given in the record; negative values are as filed. The compounds are a random part of those screened. Two or more numbers in one place are separate tests of the same structure; such repeats can differ widely. A dash means the value is not listed here; it may have been measured.

compound	A	B	C	D	E
O=C1C(CS(=O)(=O)Nc2ccc(Cl)cc2)=NC(=O)n2cccc21	2.632%	-0.5933%	-13.4%	-36.73%	4.089%
Oc1cc(-c2ccsc2)nc(C2CCN(Cc3cccnc3)CC2)n1	12.77%	-10.85%	-4.233%	-5.619%	37.88%
CN(C)C(=O)CCNC(=O)Nc1sc2ccccc2c1Cl	8.219%	-6.321%	3.466%	-534.4%	-8.505%
Cc1cc(C2CN(CC(=O)NCc3ccco3)CCO2)ccc1F (stereo not given)	4.839%	-	-7.944%	-18.79%	7.788%
CN(C)C[C@H]1C[C@@H](CO)CN(C(=O)CCc2nc(Cl)n[nH]2)C1	12.04%	2.06%	-5.844%	-7.121%	13.43%
Cc1ccc(S(=O)(=O)N2CCc3nc(C4CCNCC4)ncc3C2)cc1.Cl	-	25.3%	-	4.526%	-1.201%
O=C(O)C(F)(F)F.[H][C@]12CCN(C(=O)c3ccc(OC)cc3)CC[C@@]1([H])S(=O)(=O)CCN2C	-	4.992%	-	-118.8%	21.36%
[H][C@]12CC[C@]([H])(CN(Cc3ccc(-n4cccn4)cc3)C1)N(CCC)C2	-	-7.42%	-	-1.641%	13.99%
COCCN1CCOCC12CCN(Cc1ccn(C)n1)CC2.O=C(O)C(F)(F)F.O=C(O)C(F)(F)F	-	9.278%	-	-	7.508%
[H][C@@]12CCN(Cc3c(C)noc3C)C[C@@]1([H])[C@H](C(=O)N1CCCO1)CCO2	-	-0.8547%	-	16.12%	19.46%
CCSCCC(C)N(C)C(=O)c1ccc2nncn2c1 (stereo not given)	11.43%	8.29%	15.17%	-68.84%	5.518%
COc1ccc(CN2Cc3cn(C)nc3C(COCC3CC3)C2)cc1 (stereo not given)	17.65%	7.344%	5.331%	-9.969%	16.82%
CCOCc1ccc(CNC2=NCCCN2)cc1	12.82%	-	-8.371%	-	-
COc1ccccc1C(C)(C)NCc1ccc(C)o1	2.857%	-33.36%	2.637%	-13.37%	26.57%
O=C(Cn1cc(NC(=O)c2ccc(F)cc2F)cn1)NC1CCCC1	16.13%	0.7023%	-8.808%	-49.22%	24.83%
O=C(NCC1(O)COCCN(Cc2cccc(O)c2)C1)c1cnccn1 (stereo not given)	11.27%	-	-20.73%	-	27.22%
Cc1nc2cc(O)nn2c(C)c1CCC(=O)NCCCC(C)C	10.43%	15.24%	-5.612%	-20.53%	-16.41%
O=C(O)C(F)(F)F.O=C(O)C(F)(F)F.[H][C@@]12CN(Cc3ccncc3)C[C@]1([H])C(=O)N(c1ccsc1)C2	-	-9.706%	-	31.16%	21.46%
CCc1ccc(CN2CCc3c(nnn3C)C2COC)cc1.O=C(O)C(F)(F)F (stereo not given)	-	0.6575%	-	-36.69%	-4.465%
N#Cc1cccnc1N1CCCN(C(=O)CCc2cccs2)CC1	16.24%	0.7042%	-11.39%	-16.32%	-5.576%
Cc1nc(N)cc(C2CCN2CCOc2ccccc2)n1 (stereo not given)	10%	14.15%	-14.17%	-3.082%	-0.3835%
COc1cc2nc(C)sc2cc1NC(=O)C(C)NC(N)=O (stereo not given)	19.35%	0.4348%	-3.499%	-51.66%	13.84%
COCc1ncc(CN2CCC3(CCC(=O)N(CC(C)O)C3)CC2)cn1 (stereo not given)	6.667%	-2.688%	1.203%	-0.2012%	16.84%
CCCN1CCc2[nH]nc(C(=O)N3CCNC(=O)C3)c2C1	5.172%	-	-7.017%	-	-
O=C(O)c1nnn(-c2cccc(C(F)(F)F)c2)c1C1CC1	25.93%	8.97%	-19.31%	-0.205%	9.094%
CN1CCN(C(=O)[C@H]2C[C@@H]3CCN(c4ncc(F)cn4)C[C@@H]3O2)CC1	7.547%	-	3.303%	-	-
CCC1CCN(CCn2cnc3c(C)csc3c2=O)CC1	11.67%	9.843%	2.163%	-126.3%	-1.727%
CC(=O)c1cccc(OCCCC(=O)N(C)C2CCN(C)CC2)c1	11.43%	8.228%	2.518%	-11.93%	24.11%
Cc1ccc(Cn2c(=O)[nH]c3csnc3c2=O)cc1	7.692%	7.548%	1.199%	-13.22%	-6.726%
COc1c(CNCc2ccc(N(C)C)nc2)c(C(C)C)nn1C	4%	-17.5%	10.83%	2.948%	38.11%
COc1ccc(CN(C)Cc2c(C)noc2C)c(Br)c1OC	6.667%	19.72%	-3.359%	-73.6%	14.86%
Cc1nc(C)n(CC2CN(c3nnc(C)c(C)c3C#N)CCO2)n1 (stereo not given)	13.6%	-4.94%	4.924%	-25.87%	23.76%
CCCN(CC1CC1)S(=O)(=O)c1ccc(NC(C)=O)cc1	10.26%	17.42%	-26.34%	-6.297%	-0.5973%
O=C(C1CCCCC1)N1CCC2(CCCN2CC2CC2)CC1	12.2%	-	-2.8%	-	-
N#Cc1cccnc1NCCC1CCN(CC(F)(F)F)CC1	15.97%	-3.725%	0.9271%	-3.342%	5.172%
[H][C@@]12CS(=O)(=O)C[C@]1([H])N(C(=O)c1cnccc1C)CCN2CCC	-	-13.12%	-	-31.59%	20.87%
CC(C)CN(C(=O)Nc1cccc(C(=O)N(C)C)c1)C1CC1	8.889%	-38.07%	1.763%	-58.43%	-13.57%
CCO[C@@H]1CCN(C(=O)c2cnc(C)cn2)[C@@H]1Cc1cnn(C)c1	13%	-5.363%	-3.785%	-16.73%	53.66%
Cc1ccc(CN2CCO[C@@H]3C[C@@H](C(=O)NC(C)C)C[C@H]32)o1	8.333%	-	-8.359%	-	-
Cc1cccc(N2CCOCC3(C2)CN(c2cncnc2)C(=O)CO3)n1 (stereo not given)	9.615%	2.184%	-2.55%	-15.44%	4.656%
COCCNC(=O)[C@@]12CCO[C@@H]1CCN(Cc1ccncc1)C2	0.9174%	-	6.333%	-	-
CN1CCN(C2COC3(CCN(Cc4ccsc4)CC3)C2)CC1.O=C(O)C(F)(F)F.O=C(O)C(F)(F)F (stereo not given)	-	-32.69%	-	-379.3%	20.49%
O=C1[C@@H]2CCN(Cc3ccoc3)C[C@@H]2OCCN1c1ccccc1	9.489%	-	3.521%	-	-
c1coc(CN2C[C@@H]3CN(Cc4ccoc4)CCO[C@@H]3C2)c1	5.769%	-	-0.08252%	-	-
Cc1cccc(N(CCC#N)S(=O)(=O)CC2CCCCO2)c1 (stereo not given)	3.333%	0.5643%	18.31%	-69.37%	-15.17%
Cc1cc(NCC2CCN(c3ccccc3)C2)n2ncnc2n1 (stereo not given)	32.88%	-6.917%	6.44%	-86%	10.32%
Cn1ccnc1CNCC1CCCN1c1cccnn1 (stereo not given)	8.929%	-11.28%	-38.31%	-12.9%	-18.02%
Cc1cc(C(=O)Nc2nc3c(s2)CN(S(=O)(=O)C2CC2)CC3)c(C)o1	25.64%	20.45%	-1.034%	0.5566%	-31.85% and -5.596%
CCOCCCn1c(NC(=O)c2cc(C)no2)nc2ccccc21	5.769%	-1.222%	-10.57%	-	16.89%
CC(C)NC(=O)[C@H]1C[C@H]2NCCO[C@@H]2C1	8.772%	-	-7.805%	-	-
COc1cccc2c1OCC(C(=O)N1Cc3ccccc3C1)C2 (stereo not given)	15.2%	6.245%	-39.04%	-19.93%	0.7044%
COc1ccc(CN2CC(O)CN(C(=O)c3ccccc3)CC2=O)cc1 (stereo not given)	4.082%	-7.818%	9.067%	-34.46%	-12.22%
Cc1ccc(C(CNCc2cnn(C(C)C)c2)N2CCOCC2)s1 (stereo not given)	11.54%	5.986%	-8.016%	12.01%	35.47%
Cc1noc(C)c1CN1CCN(c2ccnc(-c3ccccc3)n2)CC1	-3.297%	32.2%	-9.057%	-43.74%	-7.817%
Cc1ccc(C(=O)N(C)C)cc1NC(=O)COCC1CC1	4.762%	6.491%	-4.093%	-4.553%	30.09%

The last 4 entries again:

| compound | A | B | C | D | E |
|---|---|---|---|---|---|
| `COc1ccc(CN2CC(O)CN(C(=O)c3ccccc3)CC2=O)cc1` (stereo not given) | 4.082% | -7.818% | 9.067% | -34.46% | -12.22% |
| `Cc1ccc(C(CNCc2cnn(C(C)C)c2)N2CCOCC2)s1` (stereo not given) | 11.54% | 5.986% | -8.016% | 12.01% | 35.47% |
| `Cc1noc(C)c1CN1CCN(c2ccnc(-c3ccccc3)n2)CC1` | -3.297% | 32.2% | -9.057% | -43.74% | -7.817% |
| `Cc1ccc(C(=O)N(C)C)cc1NC(=O)COCC1CC1` | 4.762% | 6.491% | -4.093% | -4.553% | 30.09% |